# Laboratory results taken from PubChem BioAssay AID540276 (National Center for Advancing Translational Sciences (NCATS), 2011).
# Values joined by “and” are separate entries in the source; they are usually repeats but may differ in a detail not shown here. Identical values can stand only once. Hit rate of the full screen: of about 300,000 compounds, about 5,400 (1.8%) were called active. The shares of active, inactive and inconclusive entries below differ from those in the screen. Calls come from the whole dose curve; tested in HEK293 cells. A potency beside an inconclusive call is a rough fit, not a confirmed value.
# Experiment: qHTS for inhibitors of binding or entry into cells for Marburg Virus
# Details: Marburg virus pseudotyped entry inhibition, cell reporter; series mostly up to 37.8 µM
# Potency is the fitted concentration of half-maximal effect.
row,SMILES,Potency
1,COc1ccc(-c2nnc(SCC(=O)N3CCCC3)o2)cc1,"inconclusive: 12.6 µM [activator, partial curve]"
2,CCC(C(=O)NCCc1c[nH]c2cc(OC)ccc12)c1ccccc1 (stereo not given),"inconclusive: 2.82 µM [inhibitor, partial curve, poor fit]"
3,CC(C)N(C#N)c1nc(N2CCOCC2)nc(N2CCOCC2)n1,"inconclusive: 35.5 µM [inhibitor, single point]"
4,O=C(CSc1nccn1-c1ccc(Cl)cc1)N1CCCc2ccccc21,"inconclusive: 1.26 µM [activator, full curve, poor fit]"
5,O=C(N/N=C/c1ccc(OC(F)F)cc1)C1=COCCO1,"inconclusive: 1.26 µM [activator, partial curve, poor fit]"
6,CCn1ncc(Br)c1C(=O)Nc1cc(C(=O)OC)ccc1C(=O)OC,inactive
7,c1c2c(cc3sc(N4CCCCC4)nc13)OCCO2,active: 0.562 µM
8,COc1ccc(NC(=O)c2c(N)no[n+]2[O-])cc1,inactive
9,COc1ccc(CNC(=S)N/N=C/c2ccc(O)c(OC)c2)cc1,"inconclusive: 7.94 µM [activator, partial curve, poor fit]"
10,Cc1ccc(C(=O)C(C)OC(=O)Cc2n[nH]c(=O)c3ccccc23)cc1C (stereo not given),"inconclusive: 31.6 µM [inhibitor, single point]"
11,COC(=O)c1c(N2C(=O)CC(Sc3ccccc3C(=O)O)C2=O)sc2c1CCCC2 (stereo not given),inactive
12,COC(=O)c1ccc(NC(=S)NC2CC(C)(C)NC(C)(C)C2)cc1,"inconclusive: 11.6 µM [inhibitor, partial curve, poor fit]"
13,COc1ccc(N2CCN(C(=O)Cn3cnc4sc(C)c(S(=O)(=O)N5CCC(C)CC5)c4c3=O)CC2)cc1,"inconclusive: 25.1 µM [inhibitor, single point]"
14,O=C(Nc1ccccn1)C1CCN(S(=O)(=O)c2ccc(Cl)cc2)CC1,inactive
15,Cc1ccccc1-c1nc(CN2CCCC2c2ccc(F)cc2)c(C)o1 (stereo not given),"inconclusive: 7.08 µM [inhibitor, partial curve]"
16,O=C(COc1ccccc1)N1CCN=C1c1ccccc1,"inconclusive: 0.146 µM [inhibitor, full curve, poor fit]"
17,CCN(CC)S(=O)(=O)c1ccc2c(c1)nc(SCC(=O)N1CCCCCC1)n2-c1ccc(OC)cc1,"inconclusive: 25.9 µM [inhibitor, single point]"
18,Cc1ccc(S(=O)(=O)N2CCCN(c3nc4cc(C)ccc4cc3C#N)CC2)cc1,"inconclusive: 14.6 µM [inhibitor, partial curve, poor fit]"
19,Cc1cc2ccccc2c(=O)n1CC(=O)Nc1ccc2c(c1)OCO2,"inconclusive: 0.112 µM [inhibitor, full curve, poor fit]"
20,CC(Nc1oc(-c2ccccc2)nc1-c1cccc2ccccc12)c1ccccc1 (stereo not given),"inconclusive: 1.19 µM [inhibitor, single point] and inconclusive: 59.6 nM [activator, full curve, poor fit]"
21,CC1CCCN(CCCN2C(=O)C3C(C(=O)Nc4cccc(Cl)c4)C4C=CC3(O4)C2C(=O)NC2CCCCC2)C1 (stereo not given),"inconclusive: 12.6 µM [inhibitor, single point]"
22,Cc1cc(C)nc(NNC2=CC(=[N+]3CCCCC3)CC(C)(C)C2)n1,"inconclusive: 3.16 µM [inhibitor, single point]"

row,SMILES,Potency
1,O=[N+]([O-])c1cc(F)cc(F)c1Nc1ccc(F)cc1,inactive
2,COC(=O)c1ccc(N/C(=N/S(=O)(=O)c2ccccc2)c2ccccc2)cc1,inactive
3,O=C(CSc1ccc([N+](=O)[O-])cc1)Nc1cccc(S(=O)(=O)Nc2ccccc2F)c1,"inconclusive: 35.5 µM [inhibitor, single point]"
4,O=C1c2ccccc2C(=O)N1OCc1c(F)cccc1Cl,inactive
5,COc1ccc(Cc2nc(-c3ccccn3)no2)cc1,"inconclusive: 3.98 µM [activator, partial curve, poor fit]"
6,Cc1nc(-c2cc(-c3nc(-c4cc(C(F)(F)F)cc(C(F)(F)F)c4)no3)no2)cs1,inactive
7,COC(=O)c1ccccc1NC(=O)CN1CCC(n2nnc3cc(C(F)(F)F)ccc32)CC1,inactive
8,CCCc1nc2sc3c(c2c(=O)n1NC(=O)CCC(=O)OC)CCCC3,inactive
9,Cc1c(CNC2CCCCCC2)c(C(=O)O)c(C)n1Cc1c(F)cccc1Cl,inactive
10,Cc1cccc(NS(=O)(=O)c2cccc3nonc23)c1,"inconclusive: 35.5 µM [inhibitor, single point]"
11,O=C(NCc1cccnc1)c1ccc(CS(=O)(=O)c2ccc(Cl)cc2)o1,"inconclusive: 11.2 µM [inhibitor, partial curve, poor fit]"
12,CN(C)CCN1C(=O)C(O)=C(C(=O)c2cc3ccccc3o2)C1c1ccc(N(C)C)cc1 (stereo not given),"inconclusive: 2.59 µM [activator, full curve, poor fit]"
13,COc1cc(=O)n(C)c2cc(N(C)C)ccc12,inactive
14,Clc1ccc(OCCCNCc2ccccc2)c2ccccc12,"inconclusive: 3.55 µM [inhibitor, partial curve, poor fit]"
15,CC(=O)OCC(=O)C1(O)CCC2C3CCC4=CC(=O)CCC4(C)C3(Cl)C(O)CC21C (stereo not given),"inconclusive: 5.62 µM [inhibitor, single point]"
16,O=[N+]([O-])c1cc(S(=O)(=O)Nc2cccc(Cl)c2)ccc1N=Nc1c(O)[nH]c2ccccc12,"inconclusive: 3.55 µM [inhibitor, single point]"
17,CCOC(=O)C1=C(C)NC(C)=C(C(=O)OC)[C@H]1c1cccc([N+](=O)[O-])c1,inactive
18,COc1ccc(N(C(=O)COc2ccccc2OC)S(=O)(=O)c2ccc(C)cc2)cc1,"inconclusive: 11.2 µM [inhibitor, partial curve, poor fit]"
19,CCCc1nnc(NS(=O)(=O)c2ccc(OC)cc2)s1,"inconclusive: 5.62 µM [activator, single point]"
20,C[C@H](NC(=O)C1CCN(S(=O)(=O)c2ccccc2)CC1)C(=O)NCc1ccc(Cl)cc1Cl,"inconclusive: 20 µM [inhibitor, partial curve, poor fit]"
21,O=S(=O)(Nc1nc2ccccc2nc1Nc1ccc2c(c1)OCO2)c1ccc(F)cc1,"inconclusive: 0.891 µM [inhibitor, partial curve, poor fit]"
22,COc1ccc(N2CCN(CCNC(=O)c3ccc4c(c3)[nH]c(=S)n3c5ccccc5nc43)CC2)cc1,"inconclusive: 11.2 µM [inhibitor, single point]"

row,SMILES,Potency
1,O=C1CS/C(=N\N=C\c2ccco2)N1c1ccccc1,"inconclusive: 11.2 µM [activator, partial curve, poor fit]"
2,Cc1ccc(NC2CCCN(C(=O)CCc3ccncc3)C2)cc1C (stereo not given),inactive
3,CCCOC(=O)c1c(N)sc2c1CCC2,"inconclusive: 2.31 µM [activator, single point]"
4,COc1cccc(-c2noc(-c3ccc(Cl)nc3)n2)c1,"inconclusive: 22.4 µM [activator, partial curve, poor fit]"
5,CCOc1ccc(N2C(=O)CC(NC3CCCCNC3=O)C2=O)cc1 (stereo not given),"inconclusive: 35.5 µM [inhibitor, single point]"
6,O=C(Nc1nc2ccccc2[nH]1)c1ccc(Br)o1,"inconclusive: 14.1 µM [inhibitor, single point]"
7,Cc1nc2cc(-c3sccc3-n3cccc3)nn2c(C)c1C,"inconclusive: 35.5 µM [inhibitor, partial curve, poor fit]"
8,CCOc1ccc(-c2nc(C#N)c(NCc3ccc4c(c3)OCO4)o2)cc1,inactive
9,O=C1NC(=O)C(CCc2ccncc2)(Cc2ccc([N+](=O)[O-])cc2)C(=O)N1,"inconclusive: 5.62 µM [activator, single point]"
10,O=C(c1ccco1)N1CCN(c2nc(C3CC3)nc3c2nnn3Cc2ccccc2Cl)CC1,"inconclusive: 17.8 µM [inhibitor, single point]"
11,CCCCCn1c(CN2CCN(c3cc(Cl)ccc3C)CC2)nc2c1c(=O)[nH]c(=O)n2C,active: 16.4 µM
12,Cc1ccc(-c2nc3cc(N)ccc3o2)cc1,"inconclusive: 29.1 µM [inhibitor, single point]"
13,CCOC(=O)c1sc(=NC(=O)c2ccco2)n(C)c1C,"inconclusive: 6.31 µM [activator, partial curve, poor fit]"
14,O=C1[C@H]2[C@H]3[C@H](O)[C@H](O)C/C(=N\OC[C@@H](O)COCc4ccco4)[C@@H]3CC[C@H]2C(=O)N1C[C@@H]1CCCO1,inactive
15,COc1ccccc1NS(=O)(=O)c1cccc(NC(=O)c2cncc(Br)c2)c1,active: 3.55 µM
16,COc1ccc(CSc2nc3ccncc3n2Cc2nc(-c3ccc(OC)c(OC)c3)oc2C)cc1,inactive
17,O=C(Nc1ncccc1O)c1cccc(S(=O)(=O)N2CCN(c3ccc(F)cc3)CC2)c1,inactive
18,COc1ccc(S(=O)(=O)c2cn(CC(=O)Nc3ccccc3)c3ccc(Cl)cc3c2=O)cc1,inactive
19,Cc1nn(-c2ccccc2)c(C)c1NC(=O)COc1ccc(Cl)cc1Cl,active: 11.6 µM
20,CCc1nnc(NS(=O)(=O)c2ccc(NC(=O)COc3ccc(Cl)c(C)c3)cc2)s1,"inconclusive: 22.4 µM [activator, partial curve, poor fit]"
21,CN(Cc1ccccc1F)c1ncnc2sccc12,"inconclusive: 15.8 µM [inhibitor, partial curve, poor fit]"
